# Data taken from PubChem BioAssay AID504834 (National Center for Advancing Translational Sciences (NCATS), 2011).
# About 22,000 (6.9%) of roughly 320,000 compounds were called active. This list was built around the results that the source calls inconclusive (neither active nor inactive); the mix of calls is not that of the screen. The call rests on the fitted dose curve; in most records, active means well fitted inhibition curve with a large enough effect; inconclusive means small, poorly fitted or top-dose-only effect, or another doubt; inactive means no such curve, though single readings can be large or run the other way. Potencies beside an inconclusive call are fits to weak or partial responses and may not hold up.
# Test: Primary qHTS for delayed death inhibitors of the malarial parasite plastid, 96 hour incubation
# Settings: P. falciparum luciferase reporter growth; series mostly up to 28.7 µM; activity change, negative = inhibition: at the top concentration
# Method in brief: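 Luminescence readout: decreased luciferase signal marks inhibited growth of reporter-expressing P. falciparum in infected red cells (2% hematocrit, 0.05% parasitemia final), exposed to compound two generations (96 h, 37 C, 5% CO2).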
# On the % scale 0 is the no-effect control and ±100 the full control effect; potency means the concentration at half of the fitted maximal effect.
Compound,Potency,"activity change, negative = inhibition"
CCCCCCCCCCOC(=O)Cn1c(COc2ccccc2OC)[n+](C)c2ccccc21,"inconclusive: 18.5 µM [inhibitor, single point]",–
Cc1ccc(C(=O)N2CCCC2)c(F)c1F,–,inactive: 43.2%
Cc1ccc(S(=O)(=O)Nc2nc3c(s2)C(=O)CC(C)(C)C3)cc1,"inconclusive: 0.185 µM [inhibitor, partial curve, poor fit]",–
CCCCN(CC)CCCNC(=O)c1cc2c(=O)n(C)c3ccccc3c2n1C,"inconclusive: 18.5 µM [inhibitor, single point]",–
Cc1ccc(-n2ncc3c(=O)n(CC(=O)N4CCN(C(=O)c5ccco5)CC4)cnc32)cc1,"inconclusive: 1.31 µM [inhibitor, partial curve, poor fit]",–
FC(F)(F)c1cccc(-n2nnnc2C2(N3CCOCC3)CCCCC2)c1,"inconclusive: 13.1 µM [inhibitor, partial curve, poor fit]",–
Nc1ccc(CCn2ccnc2)cc1,"inconclusive: 18.5 µM [inhibitor, single point]",–
Cc1cc2n(n1)C(c1ccccc1)Nc1ccccc1-2 (configuration not stated),"inconclusive: 0.0738 µM [inhibitor, full curve, poor fit]",–
CCCn1nc([N+](=O)[O-])c(C(C#N)c2nc3ccccc3o2)c(Cl)c1=O (configuration not stated),–,inactive: -22.6%
C#CCOCCOCCOCCNc1nc(N2CCN(C(=O)CCCCCCCCCCNC(=O)[C@H]([C@@H](C)CC)n3cc(CCCCCN)nn3)CC2)nc(N2CCN(C(=O)CCCCCCCCCCNC(=O)[C@@H]([C@H](C)CC)n3cc(CCCCCN)nn3)CC2)n1,"inconclusive: 10.4 µM [inhibitor, partial curve, poor fit]",–
COc1ccc2c(c1OC)c(=O)n1c3ccc(OC(C)C(=O)NCCN4CCOCC4)cc3c3ccnc2c31 (configuration not stated),active: 3.7 µM,–
O=C(CC(=O)Nc1ccc(F)cc1)Nc1ccc(F)cc1,–,inactive: 36.8%
COc1ccc(OC)c(-n2c(-c3ccc(S(C)(=O)=O)cc3)cc(C=O)c2C)c1,"inconclusive: 0.0041 µM [inhibitor, full curve, poor fit]",–
O=C(Nc1ccc(N2CCN(C(=O)c3cccs3)CC2)cc1)c1ccc(Br)o1,"inconclusive: 11.7 µM [inhibitor, single point]",–
CC12CN3CC(C)(CN(C1)C3c1cccs1)C2O (configuration not stated),"inconclusive: 6.57 µM [inhibitor, single point]",–
COc1cccc(C(=O)NC2CCN(CC(=O)Nc3c(C)cc(C)cc3C)CC2)c1,–,inactive: 32.7%
O=C(CCCN1C(=O)c2ccccc2C1=O)NC1=NCCS1,"inconclusive: 3.7 µM [inhibitor, partial curve, poor fit]",–
Cc1cc(C)c(C(=O)COC(=O)C2CC3CCCC(C2)C3=O)c(C)c1 (configuration not stated),–,inactive: -21.4%
O=C1c2ccccc2CN1c1ccccc1,active: 4.15 µM,–
CCOc1cc(C=C2C(=O)NC(=O)NC2=O)cc([N+](=O)[O-])c1O,–,inactive: -20.4%
CC(=O)Nc1cc(NC(C)=O)cc(-c2nc3ccccc3[nH]2)c1,active: 10.4 µM,–
COc1cc2c(O)c3c(c(-c4ccc5c(c4)OCO5)c2cc1OC)C(=O)OC3,–,inactive: -16.8%
COc1cc2c(cc1NC(=O)c1cccnc1)CCCC2,"inconclusive: 13.1 µM [inhibitor, partial curve, poor fit]",–

Compound,Potency,"activity change, negative = inhibition"
CCOC(=O)c1cc(S(=O)(=O)N(C)Cc2ccccc2)cn1C,"inconclusive: 14.7 µM [inhibitor, single point]",–
CN1C(=O)C(C)(C)c2cc(S(=O)(=O)N3CCCCCC3)ccc21,"inconclusive: 18.5 µM [inhibitor, single point]",–
CC(=O)Oc1cccc(NC(=O)c2cccc(C(=O)Nc3cccc(OC(C)=O)c3)c2)c1,"inconclusive: 8.28 µM [inhibitor, partial curve, poor fit]",–
COc1ccc(C(Nc2cccc([N+](=O)[O-])c2)P(=O)(OC(C)C)OC(C)C)cc1 (configuration not stated),"inconclusive: 0.165 µM [inhibitor, partial curve, poor fit]",–
Cc1cccc(NC(=O)Cc2cccs2)n1,–,inactive: 17.4%
COc1ccc(C(=O)NC(=S)Nc2ccc(Cl)c(C(=O)O)c2)cc1,–,inactive: -10.1%
Cc1cc(/C=N/NC(=O)Cn2c3ccccc3c(=O)c3ccccc32)c(C)n1-c1ccccc1,"inconclusive: 18.5 µM [inhibitor, single point]",–
COc1ccc(NC(=O)O/N=C/c2ccccc2Cl)cc1,–,inactive: 39.3%
Cc1ccc(N2CCN(C(=O)Nc3cccc([N+](=O)[O-])c3)CC2C)cc1 (configuration not stated),"inconclusive: 10.4 µM [inhibitor, single point]",–
CCCCC(=O)NC(=S)Nc1cccc(Cl)c1N1CCCCC1,"inconclusive: 10.4 µM [inhibitor, partial curve, poor fit]",–
Cc1nc2ccc(S(=O)(=O)NC(C(=O)NC3CCCC3)C(C)C)cc2s1 (configuration not stated),"inconclusive: 8.28 µM [inhibitor, partial curve]",–
CCn1c(O)c(N=NC(=O)c2cccnc2)c2cc(Br)ccc21,"inconclusive: 18.5 µM [inhibitor, single point]",–
Cc1ccc(C(=O)NCc2ccco2)cc1S(=O)(=O)N1CCCC1,–,inactive: 26.6%
Clc1cccc(-c2ccc(CNCc3ccccn3)o2)c1,"inconclusive: 11.7 µM [inhibitor, single point]",–
COc1ccc(NC(=O)C2CCC(=O)N2S(=O)(=O)c2ccc(C)cc2)cc1Cl (configuration not stated),–,inactive: -3.06%
O=C(N/N=C/c1coc2ccc(Cl)cc2c1=O)c1cc(O)cc(O)c1,"inconclusive: 2.33 µM [inhibitor, partial curve, poor fit]",–
O=C(COc1ccccc1Br)N1CCNC1=O,"inconclusive: 11.7 µM [inhibitor, single point]",–
O=C(c1cccnc1)C1CCCN(Cc2nc(Cc3ccccc3F)no2)C1 (configuration not stated),"inconclusive: 4.65 µM [inhibitor, partial curve, poor fit]",–
CC(=O)N=c1sc2cc(C)ccc2n1C,active: 9.28 µM,–
CCOc1ccc(N2CC(C(=O)N3CCc4ccccc43)CC2=O)cc1 (configuration not stated),–,inactive: 65.6%
Oc1ccc(Nc2nc(-c3ccc4ccccc4c3)cs2)cc1,"inconclusive: 18.5 µM [inhibitor, single point]",–
CC(C)N(Cc1nc(-c2ccccc2)no1)C(=O)c1ccc([N+](=O)[O-])cc1,–,inactive: 12.6%

# One compound at a time, from the list above. Order of values: Potency	activity change, negative = inhibition
# COc1ccc(C(=O)NC(=S)Nc2ccc(Cl)c(C(=O)O)c2)cc1 as listed: –	inactive: -10.1%
# O=C(COc1ccccc1Br)N1CCNC1=O as listed: inconclusive: 11.7 µM [inhibitor, single point]	–
# CCOc1ccc(N2CC(C(=O)N3CCc4ccccc43)CC2=O)cc1 (configuration not stated) as listed: –	inactive: 65.6%
# CC(=O)N=c1sc2cc(C)ccc2n1C as listed: active: 9.28 µM	–

# Next entries follow:

Compound,Potency,"activity change, negative = inhibition"
COc1ccccc1/C=C(/C(=O)OCC(=O)Nc1ccc(N(C)C)cc1)c1ccccc1,"inconclusive: 0.165 µM [inhibitor, full curve, poor fit]",–
Cc1ccc(N2C(=S)N=C(Nc3ccccc3C)C23CCOC(C)(C)C3)cc1 (configuration not stated),"inconclusive: 4.15 µM [inhibitor, single point]",–
COc1cc(OC)c(C2=Nc3ccc(Br)cc3C(c3ccccc3)N2CC(=O)NN)cc1OC (configuration not stated),"inconclusive: 0.928 µM [inhibitor, partial curve, poor fit]",–
COc1cc(CNc2nnnn2C)ccc1OCc1ccc(F)cc1Cl,–,inactive: 20%
O=C(Nc1nc2c(cc3c4c(cccc42)CC3)s1)c1ccccc1Cl,–,inactive: -89.4%
CCCn1c(N)c(C(=O)CSc2nc3ccccc3s2)c(=O)[nH]c1=O,"inconclusive: 14.7 µM [inhibitor, partial curve]",–
COc1ccc(-c2c3c(=O)n(C)c(=O)n(C)c3cn2-c2ccccc2O)cc1,"inconclusive: 11.7 µM [inhibitor, single point]",–
FC(F)(F)c1cccc(C2NCc3ccccc3-n3cccc32)c1 (configuration not stated),active: 4.65 µM,–
CCCCCC(=O)Nc1cc(S(=O)(=O)N2CCOCC2)ccc1Oc1ccc(OCC)cc1,"inconclusive: 11.7 µM [inhibitor, single point]",–
Cc1cc(Cl)c(OCCn2ccnc2)c(Br)c1,"inconclusive: 9.28 µM [inhibitor, partial curve, poor fit]",–
COc1ccc(C#Cc2ccc3c(c2)c(=O)c2ccccc2n3C)cc1,"inconclusive: 18.5 µM [inhibitor, single point]",–
CCN(CC)C1CCN(C(=O)c2ccc3nc(Cc4ccc(OC)cc4)oc3c2)C1 (configuration not stated),"inconclusive: 11.7 µM [inhibitor, single point]",–
CC(C)Oc1ccccc1/C=N/Nc1ccccc1[N+](=O)[O-],active: 8.28 µM,–
O=C(NC1CCCc2ccccc21)c1ccccc1OC(F)F (configuration not stated),"inconclusive: 18.5 µM [inhibitor, partial curve, poor fit]",–
CCN(CC(=O)Nc1ccc2c(c1)OCCO2)C(=O)c1ccc([N+](=O)[O-])s1,"inconclusive: 14.7 µM [inhibitor, single point]",–
Cc1ccc(C)c(NS(=O)(=O)c2cc(C(=O)NCCC3=CCCCC3)ccc2C)c1,"inconclusive: 18.5 µM [inhibitor, single point]",–
CN(Cc1ccco1)C(=O)CN1C(=O)NC(c2ccccc2)(c2ccccc2)C1=O,"inconclusive: 7.38 µM [inhibitor, partial curve, poor fit]",–
CCc1noc(C)c1C(=O)Nc1ccc(S(=O)(=O)N2CCCCC2)cc1,"inconclusive: 14.7 µM [inhibitor, partial curve, poor fit]",–
CCCC[C@H]1COCCS(=O)(=O)N1Cc1cccc(Cl)c1,"inconclusive: 18.5 µM [inhibitor, single point]",–
CCC1Oc2ccccc2N(CC(=O)NCc2ccco2)C1=O (configuration not stated),"inconclusive: 3.7 µM [inhibitor, single point]",–
O=C(N/N=C/c1cccc(OCc2ccccc2)c1)c1cccs1,"inconclusive: 11.7 µM [inhibitor, single point]",–
